Source: ChEMBL document CHEMBL3988442, “University of Dundee, Small-Polar-MMV Screening Library” (2021).

Sequences of proteins named here, by UniProt entry; tags and fusion partners are left off. Residues count along the entry.
UniProt P9WFT3, whole entry: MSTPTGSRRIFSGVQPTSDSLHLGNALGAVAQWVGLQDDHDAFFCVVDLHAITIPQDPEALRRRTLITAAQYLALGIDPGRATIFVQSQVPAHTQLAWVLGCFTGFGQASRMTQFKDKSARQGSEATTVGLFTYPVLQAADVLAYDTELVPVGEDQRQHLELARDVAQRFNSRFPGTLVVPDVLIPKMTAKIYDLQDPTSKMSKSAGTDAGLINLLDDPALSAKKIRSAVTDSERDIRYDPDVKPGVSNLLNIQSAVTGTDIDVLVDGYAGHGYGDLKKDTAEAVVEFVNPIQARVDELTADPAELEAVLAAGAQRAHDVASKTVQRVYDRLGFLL
UniProt Q8IDJ8, 1-583: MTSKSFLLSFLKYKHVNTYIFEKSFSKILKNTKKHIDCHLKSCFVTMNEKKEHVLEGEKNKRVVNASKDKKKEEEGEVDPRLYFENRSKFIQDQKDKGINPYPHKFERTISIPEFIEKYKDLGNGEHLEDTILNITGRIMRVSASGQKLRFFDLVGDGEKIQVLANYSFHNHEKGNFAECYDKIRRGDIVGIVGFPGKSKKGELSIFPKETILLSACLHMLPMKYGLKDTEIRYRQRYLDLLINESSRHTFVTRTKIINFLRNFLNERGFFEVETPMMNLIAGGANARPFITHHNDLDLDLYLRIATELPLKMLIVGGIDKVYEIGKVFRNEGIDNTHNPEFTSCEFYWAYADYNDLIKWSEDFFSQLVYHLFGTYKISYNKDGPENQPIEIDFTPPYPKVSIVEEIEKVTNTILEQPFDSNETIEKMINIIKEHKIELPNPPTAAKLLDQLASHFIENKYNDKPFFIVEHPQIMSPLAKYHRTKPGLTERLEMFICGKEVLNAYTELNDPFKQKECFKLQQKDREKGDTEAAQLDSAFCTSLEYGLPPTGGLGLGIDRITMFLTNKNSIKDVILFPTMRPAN
UniProt P9WNZ1, whole entry: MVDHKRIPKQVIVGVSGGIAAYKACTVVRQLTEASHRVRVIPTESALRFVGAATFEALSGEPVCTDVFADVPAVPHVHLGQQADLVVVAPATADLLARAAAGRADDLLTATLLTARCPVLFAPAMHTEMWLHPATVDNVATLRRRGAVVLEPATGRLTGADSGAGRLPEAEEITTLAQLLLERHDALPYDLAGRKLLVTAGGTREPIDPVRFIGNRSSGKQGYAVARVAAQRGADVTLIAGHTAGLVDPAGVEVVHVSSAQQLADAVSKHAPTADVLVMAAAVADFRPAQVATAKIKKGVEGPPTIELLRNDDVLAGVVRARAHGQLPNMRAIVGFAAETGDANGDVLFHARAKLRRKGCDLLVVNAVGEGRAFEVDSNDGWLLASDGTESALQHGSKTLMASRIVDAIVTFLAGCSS
UniProt P9WPC5, whole entry: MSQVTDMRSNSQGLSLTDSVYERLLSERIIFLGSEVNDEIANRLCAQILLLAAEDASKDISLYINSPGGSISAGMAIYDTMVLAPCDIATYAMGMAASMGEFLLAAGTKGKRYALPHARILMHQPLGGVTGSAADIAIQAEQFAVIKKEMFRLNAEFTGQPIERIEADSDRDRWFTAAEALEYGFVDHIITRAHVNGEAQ
UniProt P9WPC3, whole entry partner: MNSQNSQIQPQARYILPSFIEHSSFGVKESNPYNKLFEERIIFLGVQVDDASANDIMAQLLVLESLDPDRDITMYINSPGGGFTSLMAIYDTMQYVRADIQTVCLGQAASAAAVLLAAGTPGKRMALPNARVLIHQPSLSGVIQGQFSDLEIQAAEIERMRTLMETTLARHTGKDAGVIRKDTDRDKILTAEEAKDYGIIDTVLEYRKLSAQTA
UniProt Q4DA54, 1-478: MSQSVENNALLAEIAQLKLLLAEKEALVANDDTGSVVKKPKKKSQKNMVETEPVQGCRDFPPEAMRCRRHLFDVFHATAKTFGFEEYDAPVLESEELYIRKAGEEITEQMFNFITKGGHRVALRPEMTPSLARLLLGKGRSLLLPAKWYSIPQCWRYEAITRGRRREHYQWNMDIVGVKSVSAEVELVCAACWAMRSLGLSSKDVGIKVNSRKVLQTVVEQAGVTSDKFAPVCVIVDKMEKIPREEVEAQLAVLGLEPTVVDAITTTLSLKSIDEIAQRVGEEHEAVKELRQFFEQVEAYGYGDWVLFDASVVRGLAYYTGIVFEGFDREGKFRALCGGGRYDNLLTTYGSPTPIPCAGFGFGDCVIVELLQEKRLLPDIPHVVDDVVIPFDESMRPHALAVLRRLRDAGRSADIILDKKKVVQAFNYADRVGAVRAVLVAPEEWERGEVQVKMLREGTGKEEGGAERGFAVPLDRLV

MtTrpRS: 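Enzyme assay of tryptophanyl-tRNA synthetase; the read-out is not stated. Target: Tryptophan-tRNA ligase, Mycobacterium tuberculosis (UniProt P9WFT3). Compounds at 10 µM. Direction is not recorded; retested compounds ran higher, which suggests that high means inhibition. About 65,000 compounds were tested under these conditions; 0.098% (about 64) showed 50% or more at least once.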
PfKRS1: 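Enzyme assay of the cytosolic lysyl-tRNA synthetase in 384-well plates, read by luminescence. Target: Lysine-tRNA ligase, Plasmodium falciparum 3D7 (UniProt Q8IDJ8). Compounds at 30 µM. Direction is inferred from only a few compounds that gave an IC50; most scored high, so higher reads as stronger inhibition. Size under these conditions: about 69,000 compounds, about 49 of them at 50% or above in at least one test.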
CoaBC: 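Enzyme assay of CoaBC with a phosphate dye (Biomol Green) read at 650 nm. Target: Coenzyme A biosynthesis protein CoaBC, Mycobacterium tuberculosis (UniProt P9WNZ1). Concentration: 30 µM. Higher reads as stronger inhibition, judged from the few compounds that gave an IC50. Most strong results did not repeat in a second test. About 67,000 compounds were tested under these conditions; 0.06% (about 40) showed 50% or more at least once.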
ClpP1P2: 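ClpP1P2, Mycobacterium tuberculosis (UniProt P9WPC5 and UniProt P9WPC3). Protease assay of ClpP1P2, read by the AMC dye that it sets free. Compounds at 50 µM. Direction is inferred from only a few compounds that gave an IC50; most scored high, so higher reads as stronger inhibition. Most other retested compounds had strongly negative values. Size under these conditions: about 69,000 compounds, about 10 of them at 50% or above in at least one test.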
TcHisRS: 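Enzyme assay of histidyl-tRNA synthetase; the read-out is not stated. Target: Histidine-tRNA ligase, Trypanosoma cruzi CL Brener (UniProt Q4DA54). Concentration: 30 µM. Higher reads as stronger inhibition (inferred: compounds with an IC50 in retests scored well above the rest). About 69,000 compounds were tested under these conditions; 0.045% (about 31) showed 50% or more at least once.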

Each number is a percent effect as filed.
The record does not define 0% and 100%; most values in the screen are far below 50% and negative numbers occur (in some assays of this library far below -100).
This is an unselected part of the compounds tested.
A dash means the value is not listed here; it may have been measured.

compound	MtTrpRS	PfKRS1	CoaBC	ClpP1P2	TcHisRS
O=c1ccc(-n2ccnc2)nn1CCNS(=O)(=O)c1ccccc1Cl	-0.228	8.431	1.903	7.59	9.278
CC(=O)N1CCCC1c1cc(N2CCN(CC3CC3)CC2)cc(C)n1 (stereo not shown)	-	4.907	4.126	6.548	12.09
CN1CCN(C(=O)c2cc(-c3cnc(N4CCCC4)nc3)cn2C)CC1	3.873	-0.8597	5.514	-35.73	0
O=C(CCc1ccc(Cl)cc1)N1CCC(O)(C(F)(F)F)C1 (stereo not shown)	5.913	6.359	7.269	0.7466	5.172
O=C(c1ccn(-c2ccccc2Cl)n1)N1CCSCC1	6.706	9.436	-1.322	2.195	0.8475
N#Cc1ccc(N2CCCN(CC(=O)N3CCOCC3)CC2)cc1	-0.3632	4.658	4.435	0.9592	0.8403
O=C(c1[nH]c2ccc(Cl)cc2c1Cl)N1CCC2(CC1)OCCO2	1.349	7.155	-11.98	-0.8164	8.621
COc1cccc(C(O)CN2CCN(c3cccc(C)c3)CC2)c1 (stereo not shown)	1.027	-0.5001	1.324	-1.332	9.548
CC(C)OCCCNC(=O)CS(=O)(=O)Cc1ccc(C(C)(C)C)cc1	26.54	2.766	-0.4779	-6.858	6.857
COCCN1CCN(C(=O)c2ccc(C)cc2F)[C@H]2CS(=O)(=O)C[C@H]21	-4.61	2.194	13.18	-0.4245	2.703
Cc1n[nH]cc1CNCC1(c2ccccc2Cl)CCOCC1	-2.601	3.064	2.609	4.964	6.952
COCCN1CCCC1(C)c1nc(C)cc(N)n1 (stereo not shown)	-3.193	1.772	-0.4751	-19.7	3.077
COc1c(CC2CC(C(=O)O)=NO2)c(Br)c2c(c1OC)OCO2 (stereo not shown)	0.8911	0.07454	1.531	-22.67	7.589
CNC(=O)CCNC(=O)Nc1cccc(Cl)c1SC(F)F	-1.852	1.527	0.3205	-14.63	6.897
CCC1(c2ccc(NS(=O)(=O)c3ccc(Cl)s3)cc2)CCC(=O)NC1=O (stereo not shown)	2.668	-1.781	8.333	2.658	0
c1cncc(-c2noc(CNc3ncnc4c3CCNCC4)n2)c1	1.308	1.611	-3.086	-0.8041	0.5236
COCC(=O)NCc1cccnc1-n1cnc2ccccc21	1.701	4.653	9.524	-5.729	1.02
CS(=O)(=O)N1CCc2[nH]cnc2C12CCN(C1CCOCC1)CC2	-1.041	2.871	8.636	-2.275	0.5405
CCn1cc(CN2CCCN(C(=O)c3c(C)oc(C)c3C)CC2)cn1	-6.395	1.68	2.872	-20.03	5.539
Cc1noc(C)c1-c1cncc(C2CCCN2Cc2ncc[nH]2)n1 (stereo not shown)	-	-1.666	7.063	-4.739	0.7491
CC(c1ccncn1)N(C)Cc1cc(O)c2cc(F)ccc2n1 (stereo not shown)	-5.882	3.22	4.911	-0.7207	8.287
CSCCC(=O)N1CCCC(c2ncc[nH]2)C1 (stereo not shown)	2.991	6.955	1.646	-7.955	0
CC(=O)N[C@H]1CCN(c2nc(C)nc3c2c(C)nn3C)C1	-4.438	2.784	-	-5.852	6.494
CN(Cc1ccc(F)cc1)C(=O)NCC1(N2CCOCC2)CCSC1 (stereo not shown)	-2.245	-5.574	2.345	4.288	-3.333
Cc1cnn(CCNCC(O)COc2ccc(Cl)cc2)c1 (stereo not shown)	-1.495	15.25	2.828	-10.87	5.263
O=S(=O)(c1cn[nH]c1)N1CCC(O)(CN2CCOCC2)C1 (stereo not shown)	0.4569	0.3422	3.632	-13.42	-3.39
O=C1Cc2cc(NC(=O)N3CCCN(Cc4cccs4)CC3)ccc2N1	3.023	-0.06961	10.15	-3.655	7.143
COc1ccc(OC)c(CCNC(=O)NC(C)Cn2ccnc2)c1 (stereo not shown)	-1.415	-4.717	-3.191	21.79	1.901
CCNC(=O)c1ccc(CNCc2c(C)nn(C)c2N(C)C)cc1	-1.098	0.01196	-4.563	4.562	-1.887
Cc1ncnc2c1CCN(C(=O)c1cccnc1)CC2	0.07628	1.387	1.375	-12.72	0.4975
Cn1cnnc1C1CCCN(C(=O)NCc2cc[nH]n2)C1 (stereo not shown)	-0.09747	0.6224	4.841	13.62	-3.03
Cc1cc(N2CCOCC2)nc(N(C)CCO)c1C#N	0.4619	1.789	0.2358	1.073	2.062
Cc1ccccc1OCC1CCCN(C(=O)Cc2c[nH]c(=O)[nH]c2=O)C1 (stereo not shown)	-6.121	-2.401	-1.089	-6.115	-1.093
Cc1ccsc1CN1C[C@@H]2COC[C@]2(CNC(=O)c2ccco2)C1	-2.805	3.916	2.101	11.41	11.22
CC(Cn1cccn1)NC(=O)N(C)Cc1cnn(C)c1 (stereo not shown)	1.36	3.213	2.911	0.6405	0
COc1ccc(C2CCCN2c2nnc(C)s2)c(OC)c1 (stereo not shown)	-2.968	-1.093	1.923	-13.65	12.66
C(=C/c1ccc(CN2CCCC2)cn1)\c1ccccc1	-37.1	1.649	2.539	-14.13	12.34
Cc1nc(Nc2nccs2)cc(C2CN(C(C)C)C2)n1	6.977	1.619	-5.097	-5.768	8.812
Cc1cc(N(C)C)nc(N2CCCC2c2cc(C)on2)n1 (stereo not shown)	3.084	6.268	6.446	15.64	13
c1ncn(CC2CCCN(Cc3noc(C4CC4)n3)C2)n1 (stereo not shown)	-0.3313	0.6474	7.081	-7.059	3.152
O=C(CCn1nc(-c2cccs2)oc1=O)Nc1cccc(F)c1	-1.541	1.479	4.215	-26.78	2.89
CN(C)CCNC(=O)c1cc2n(n1)CCN(C(=O)CC(C)(C)C)C2	-2.155	-4.442	0.1212	-5.111	4.082
CC1CCCN(C(=O)Cn2cc(I)cn2)C1 (stereo not shown)	1.319	1.702	9.442	5.48	-2.326
c1ccc(CN2CCc3nnc(CN4CCCCC4)n3CC2)nc1	-3.164	-0.5224	-0.9009	2.475	6.011
CSCC1CCN(C(=O)c2ccccc2NCc2cccnc2)C1 (stereo not shown)	-0.1468	1.254	7.769	-11.9	6
CCC/N=c1/c(NC(=O)NCCOC)c(O)oc2ccccc12	5.448	2.135	0.8037	-6.807	8.772
CCn1ncc2c1CN(C(=O)c1cscn1)CC2COC (stereo not shown)	1.757	7.259	1.014	4.337	15.97
Cn1cc(CNC(=O)C2COCC(=O)N2Cc2ccccc2)cn1 (stereo not shown)	-8.025	0.8744	-1.716	-6.242	10.71
COCc1noc(-c2ccc(N3CCCCC3CCCO)nc2)n1 (stereo not shown)	1.458	1.364	7.54	-5.933	3.061

Once more, the final 5:

compound	MtTrpRS	PfKRS1	CoaBC	ClpP1P2	TcHisRS
CSCC1CCN(C(=O)c2ccccc2NCc2cccnc2)C1 (stereo not shown)	-0.1468	1.254	7.769	-11.9	6
CCC/N=c1/c(NC(=O)NCCOC)c(O)oc2ccccc12	5.448	2.135	0.8037	-6.807	8.772
CCn1ncc2c1CN(C(=O)c1cscn1)CC2COC (stereo not shown)	1.757	7.259	1.014	4.337	15.97
Cn1cc(CNC(=O)C2COCC(=O)N2Cc2ccccc2)cn1 (stereo not shown)	-8.025	0.8744	-1.716	-6.242	10.71
COCc1noc(-c2ccc(N3CCCCC3CCCO)nc2)n1 (stereo not shown)	1.458	1.364	7.54	-5.933	3.061